From PubChem BioAssay AID244 (DTP/NCI, 2004) come the findings set out here.

Molecules are shown by their SMILES. The list does not hold the whole screen: it gathers tests that were run many times, whatever their T/C, doses with no T/C, and many T/C values between a quarter and a half above the control. Further doses and runs are listed elsewhere. T/C gives the treated animals as a percentage of the vehicle group. Some entries give survivors of the animals treated and no T/C: the source holds a T/C of zero for them, seemingly a mark for toxic or unscored doses. Some survivor counts are full or nearly so, which does not show that the dose was tolerated: the source hardly ever lists a survival T/C far under the control, and the zero likely stands for such cases as well. Counts of survivors are from the toxicity check (mostly the fifth day) where no day follows; animals may have died later. Schedules are NCI's codes, read here as Q, the interval in days (D) or hours (H), X, the number of doses. Some molecules as drawn cover several salts, stereoisomers or complexes of the source; a dose is that of the sample tested. Additions like (4×) stand for listed records that agree. Where survival is the endpoint, the PubChem record calls one and a half times the control and up active, and a quarter to a half above the control has no call in these data; cut-offs in other NCI protocols can differ.

The test system of the assay is CD2F1 mice, Lymphoma 8 ip, survival T/C. As to the kind of experiment: NCI In Vivo Anticancer Drug Screen. Data for tumor model Lymphoma 8 (intraperitoneal) in CD2F1 (CDF1) mice. The conditions noted are these: higher T/C = longer survival. As to the method: The antitumor activity of compounds was measured in mice bearing transplantable tumors. Survival or tumor size were measured and the results are expressed as the measurement made in the treated group (T) divided by the measurement made in the vehicle treated control group (C). The tumor model used in this assay is Lymphoma 8 (intraperitoneal) in CD2F1 (CDF1) mice

`NC(=O)OCC(N)C(=O)O` (stereo unspecified): under “T/C endpoint: median survival time, dose: 200.0 mg/kg/injection, schedule: Q01DX005 (ip), vehicle: saline”, the survivor count is listed as 10 of 10.
Take `NCC(=O)O`: the survivor count is on record as 10 of 10 (T/C endpoint: median survival time, dose: 187.5 mg/kg/injection, schedule: Q04HX020 (ip), vehicle: saline); 10 of 10 (T/C endpoint: median survival time, dose: 375.0 mg/kg/injection, schedule: Q04HX020 (ip), vehicle: saline); 10 of 10 (T/C endpoint: median survival time, dose: 750.0 mg/kg/injection, schedule: Q04HX020 (ip), vehicle: saline); 10 of 10 (T/C endpoint: median survival time, dose: 1500.0 mg/kg/injection, schedule: Q04HX020 (ip), vehicle: saline).
Regarding `NC(=O)C(F)(F)C(N)C(=O)O` (stereo unspecified), where the note is “T/C endpoint: median survival time, dose: 200.0 mg/kg/injection, schedule: Q01DX009 (ip), vehicle: saline”, the survivor count is recorded as 3 of 3.
For the compound `O=C1C=C(C2OC(CO)C(O)C2O)C(=O)N1` (stereo unspecified), the survivor count (T/C endpoint: median survival time, dose: 8.0 mg/kg/injection, schedule: Q01DX005 (ip), vehicle: saline) is reported as 6 of 6; the survivor count (T/C endpoint: median survival time, dose: 16.0 mg/kg/injection, schedule: Q01DX005 (ip), vehicle: saline) is 2 of 6; the survivor count (T/C endpoint: median survival time, dose: 16.0 mg/kg/injection, schedule: Q01DX010 (ip), vehicle: saline) was 4 of 6; the survivor count (T/C endpoint: median survival time, dose: 32.0 mg/kg/injection, schedule: Q01DX005 (ip), vehicle: saline) is recorded as 0 of 6.
For the compound `CN(Cc1cnc2nc(N)nc(N)c2n1)c1ccc(C(=O)N[C@@H](CCC(=O)O)C(=O)O)cc1`, the survivor count (T/C endpoint: median survival time, dose: 3.0 mg/kg/injection, schedule: Q01DX005 (ip), vehicle: saline) is listed as 10 of 10.
As to `COc1cccc2c1C(=O)c1c(O)c3c(c(O)c1C2=O)C[C@@](O)(C(C)=O)C[C@@H]3OC1CC(N)C(O)C(C)O1` (stereo partly specified), the T/C (T/C endpoint: median survival time, dose: 5.0 mg/kg/injection, schedule: Q01DX005 (ip), vehicle: saline) was 127 % of control. Under “T/C endpoint: median survival time, dose: 10.0 mg/kg/injection, schedule: Q01DX005 (ip), vehicle: saline”, the survivor count is on record as 10 of 10.
For `CCSCCC(N)C(=O)O` (stereo unspecified), for the setting “T/C endpoint: median survival time, dose: 150.0 mg/kg/injection, schedule: Q01DX005 (ip), vehicle: saline”, the survivor count is recorded as 10 of 10.
For the compound `CC/C(=C(/CC)c1ccc(O)cc1)c1ccc(O)cc1`, the survivor count (T/C endpoint: survival time, mean or median, dose: 12.5 mg/kg/injection, schedule: Q01DX010 (sc), vehicle: steroid suspending solution) is 6 of 6.
Take `CN1C(=O)C=CC1=O`: the survivor count is 5 of 6 (T/C endpoint: median survival time, dose: 4.0 mg/kg/injection, schedule: Q01DX009 (ip), vehicle: saline) and 0 of 6 (2×) (T/C endpoint: median survival time, dose: 8.0 mg/kg/injection, schedule: Q01DX009 (ip), vehicle: saline).
As to `NC(C/[N+]([O-])=N/O)C(=O)O` (stereo unspecified), the T/C runs as follows: (T/C endpoint: median survival time, dose: 8.78 mg/kg/injection, schedule: Q01DX010 (ip), vehicle: alkali diluted with saline) 144 % of control; (T/C endpoint: median survival time, dose: 50.0 mg/kg/injection, schedule: Q01DX009 (ip), vehicle: saline + alcohol) 132 % of control. The survivor count reads like this: (T/C endpoint: median survival time, dose: 200.0 mg/kg/injection, schedule: Q01DX009 (ip), vehicle: other) 5 of 6; (T/C endpoint: median survival time, dose: 200.0 mg/kg/injection, schedule: Q01DX009 (ip), vehicle: saline + alcohol) 6 of 6; (T/C endpoint: median survival time, dose: 200.0 mg/kg/injection, schedule: Q01DX009 (ip), vehicle: water) 5 of 6; (T/C endpoint: median survival time, dose: 400.0 mg/kg/injection, schedule: Q01DX009 (ip), vehicle: other) 3 of 6; (T/C endpoint: median survival time, dose: 400.0 mg/kg/injection, schedule: Q01DX009 (ip), vehicle: saline + alcohol) 4 of 6; (T/C endpoint: median survival time, dose: 400.0 mg/kg/injection, schedule: Q01DX009 (ip), vehicle: water) 6 of 6.
On to `CC[C@H]1CN2CCc3cc(OC)c(OC)cc3[C@@H]2C[C@@H]1C[C@H]1NCCc2cc(OC)c(OC)cc21`, for which the survivor count (T/C endpoint: median survival time, dose: 30.0 mg/kg/injection, schedule: Q04DX003 (ip), vehicle: water) was 8 of 8.
